In US20050214288A1:
These are yes or no findings as the source states them, for the method shown. Some results given as binding are weak or reduced against the parent protein; the word gives no strength. Where a sequence is shown, tags or fusion partners need not be part of it.

Target: T1, biotinylated rHuNOGOSR-Flag (recombinant soluble human Flag-tagged NogoR) (human) (UniProt Q9BZR6)
T1 sequence (chain, biotinylated with Sulfo-NHS-LC-Biotin (sites not stated)): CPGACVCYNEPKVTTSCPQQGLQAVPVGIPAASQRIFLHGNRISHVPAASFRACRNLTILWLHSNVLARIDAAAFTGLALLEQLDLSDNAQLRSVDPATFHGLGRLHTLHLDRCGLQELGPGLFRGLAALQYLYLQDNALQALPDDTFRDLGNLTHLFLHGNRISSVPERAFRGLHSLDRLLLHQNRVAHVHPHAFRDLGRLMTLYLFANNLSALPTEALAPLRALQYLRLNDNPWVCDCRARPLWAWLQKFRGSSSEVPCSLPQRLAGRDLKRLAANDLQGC
Test: ECL matrix assay, streptavidin beads capture Biotin-sNogoR-Flag

B1: Recombinant Rat MAG-Fc (R&D Systems), labeled with Ori-TAG (Fc fusion, UniProt P07722 20-516, looked up, not shown: a dimerising Fc or GST)
chain: GHWGAWMPSSISAFEGTCVSIPCRFDFPDELRPAVVHGVWYFNSPYPKNYPPVVFKSRTQVVHESFQGRSRLLGDLGLRNCTLLLSTLSPELGGKYYFRGDLGGYNQYTFSEHSVLDIINTPNIVVPPEVVAGTEVEVSCMVPDNCPELRPELSWLGHEGLGEPTVLGRLREDEGTWVQVSLLHFVPTREANGHRLGCQAAFPNTTLQFEGYASLDVKYPPVIVEMNSSVEAIEGSHVSLLCGADSNPPPLLTWMRDGMVLREAVAESLYLDLEEVTPAEDGIYACLAENAYGQDNRTVELSVMYAPWKPTVNGTVVAVEGETVSILCSTQSNPDPILTIFKEKQILATVIYESQLQLELPAVTPEDDGEYWCVAENQYGQRATAFNLSVEFAPIILLESHCAAARDTVQCLCVVKSNPEPSVAFELPSRNVTVNETEREFVYSERSGLLLTSILTLRGQAQAPPRVICTSRNLYGTQSLELPFQGAHRLMWAKIGP
modifications: labeled with Origen-TAG-NHS at a molar challenge ratio of 5:1
How did the binding turn out when B1 was run?
Its binding is “binds”.
